PubChem BioAssay AID1259254 – NCATS – 2017
Assay: 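Gene knock-downs that lead to re-replication, shown by excess G2 DNA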 (primary screen). Cell system: human HCT116 colorectal cancer cells. Knock-down reagent: single siRNA against human genes. Timing: 3 days. Detection: 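Nuclei stained with Hoechst and imaged; cell-cycle phase assigned by DNA content; G2 share scaled per plate, non-targeting siRNA 0%, GMNN siRNA 100%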. Reading the numbers: G2 robust z-score and G2 cells, % of GMNN control: higher = more G2 cells, more excess DNA replication. Call rule: 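An siRNA counts as active if its G2 robust z-score lies at least 5 MADs above the screen median; here such calls match roughly 38% of GMNN control or more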.
The deposit covers about 59,000 reagents; below is a random part of them. About 1,550 of all reagents (2.6%) were called active. 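G2 share is only a proxy for re-replication; each gene was hit by three separate siRNAs, and active genes were retested.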 The numbers tell different reagents against one gene apart. Not all columns of the deposit are shown. Not stated in the record: the amount of reagent.

gene | siRNA no. | G2 robust z-score | G2 cells, % of GMNN control | call
ZDHHC8 (zDHHC palmitoyltransferase 8) | 1 | -0.524 | -0.716 | inactive
ZDHHC8 (zDHHC palmitoyltransferase 8) | 2 | -0.488 | -0.469 | inactive
ZDHHC8 (zDHHC palmitoyltransferase 8) | 3 | -1.07 | -4.59 | inactive
STN1 (STN1 subunit of CST complex) | 1 | 2.23 | 18.6 | inactive
STN1 (STN1 subunit of CST complex) | 2 | 0.235 | 4.62 | inactive
STN1 (STN1 subunit of CST complex) | 3 | -0.214 | 1.47 | inactive
CWC27 (CWC27 spliceosome associated cyclophilin) | 1 | -1.06 | -4.52 | inactive
CWC27 (CWC27 spliceosome associated cyclophilin) | 2 | -0.968 | -3.84 | inactive
CWC27 (CWC27 spliceosome associated cyclophilin) | 3 | 2.69 | 21.9 | inactive
NR0B2 (nuclear receptor subfamily 0 group B member 2) | 1 | 3.02 | 24.2 | inactive
NR0B2 (nuclear receptor subfamily 0 group B member 2) | 2 | -0.441 | -0.134 | inactive
NR0B2 (nuclear receptor subfamily 0 group B member 2) | 3 | 3.01 | 24.1 | inactive
ARSF (arylsulfatase F) | 1 | -0.572 | -1.06 | inactive
ARSF (arylsulfatase F) | 2 | -1.05 | -4.45 | inactive
ARSF (arylsulfatase F) | 3 | -0.82 | -2.8 | inactive
ZNF202 (zinc finger protein 202) | 1 | -0.472 | -0.35 | inactive
ZNF202 (zinc finger protein 202) | 2 | 1.32 | 12.2 | inactive
ZNF202 (zinc finger protein 202) | 3 | -1.09 | -4.72 | inactive
RND3 (Rho family GTPase 3) | 1 | 2.7 | 22 | inactive
RND3 (Rho family GTPase 3) | 2 | -0.138 | 2 | inactive
RND3 (Rho family GTPase 3) | 3 | 0.691 | 7.83 | inactive
SHLD1 (shieldin complex subunit 1) | 1 | 1.55 | 13.8 | inactive
SHLD1 (shieldin complex subunit 1) | 2 | -0.495 | -0.517 | inactive
SHLD1 (shieldin complex subunit 1) | 3 | 0.958 | 9.71 | inactive
UGT3A1 (UDP glycosyltransferase family 3 member A1) | 1 | 1.2 | 11.4 | inactive
UGT3A1 (UDP glycosyltransferase family 3 member A1) | 2 | 0.38 | 5.64 | inactive
UGT3A1 (UDP glycosyltransferase family 3 member A1) | 3 | 2.64 | 21.5 | inactive
TNIP1 (TNFAIP3 interacting protein 1) | 1 | 1.95 | 16.7 | inactive
TNIP1 (TNFAIP3 interacting protein 1) | 2 | 2.03 | 17.2 | inactive
TNIP1 (TNFAIP3 interacting protein 1) | 3 | -0.751 | -2.32 | inactive
AASS (aminoadipate-semialdehyde synthase) | 1 | -0.317 | 0.739 | inactive
AASS (aminoadipate-semialdehyde synthase) | 2 | 0.613 | 7.28 | inactive
AASS (aminoadipate-semialdehyde synthase) | 3 | 1.77 | 15.4 | inactive
NDUFA11 (NADH:ubiquinone oxidoreductase subunit A11) | 1 | -0.912 | -3.45 | inactive
NDUFA11 (NADH:ubiquinone oxidoreductase subunit A11) | 2 | -0.0525 | 2.6 | inactive
NDUFA11 (NADH:ubiquinone oxidoreductase subunit A11) | 3 | -0.784 | -2.55 | inactive
BCAS4 (breast carcinoma amplified sequence 4) | 1 | 1.37 | 12.6 | inactive
BCAS4 (breast carcinoma amplified sequence 4) | 2 | 0.774 | 8.41 | inactive
BCAS4 (breast carcinoma amplified sequence 4) | 3 | 1.83 | 15.9 | inactive
SRF (serum response factor) | 1 | -1.23 | -5.72 | inactive
SRF (serum response factor) | 2 | 0.259 | 4.79 | inactive
SRF (serum response factor) | 3 | 1.58 | 14.1 | inactive
LAMTOR2 (late endosomal/lysosomal adaptor, MAPK and MTOR activator 2) | 1 | 1.65 | 14.6 | inactive
LAMTOR2 (late endosomal/lysosomal adaptor, MAPK and MTOR activator 2) | 2 | -0.388 | 0.241 | inactive
LAMTOR2 (late endosomal/lysosomal adaptor, MAPK and MTOR activator 2) | 3 | 6.34 | 47.6 | active

Laid out differently: results already given.
{"gene": "STN1 (STN1 subunit of CST complex)", "siRNA no.": 2, "G2 robust z-score": 0.235, "G2 cells, % of GMNN control": 4.62, "call": "inactive"}
{"gene": "STN1 (STN1 subunit of CST complex)", "siRNA no.": 3, "G2 robust z-score": -0.214, "G2 cells, % of GMNN control": 1.47, "call": "inactive"}
{"gene": "CWC27 (CWC27 spliceosome associated cyclophilin)", "siRNA no.": 1, "G2 robust z-score": -1.06, "G2 cells, % of GMNN control": -4.52, "call": "inactive"}
{"gene": "CWC27 (CWC27 spliceosome associated cyclophilin)", "siRNA no.": 2, "G2 robust z-score": -0.968, "G2 cells, % of GMNN control": -3.84, "call": "inactive"}

Further results follow:
gene | siRNA no. | G2 robust z-score | G2 cells, % of GMNN control | call
DDX5 (DEAD-box helicase 5) | 1 | -0.312 | 0.771 | inactive
DDX5 (DEAD-box helicase 5) | 2 | -0.526 | -0.734 | inactive
DDX5 (DEAD-box helicase 5) | 3 | -0.586 | -1.15 | inactive
H1-7 (H1.7 linker histone) | 1 | 0.529 | 6.69 | inactive
H1-7 (H1.7 linker histone) | 2 | -0.799 | -2.66 | inactive
H1-7 (H1.7 linker histone) | 3 | -1.32 | -6.3 | inactive
C4orf33 (chromosome 4 open reading frame 33) | 1 | -0.328 | 0.661 | inactive
C4orf33 (chromosome 4 open reading frame 33) | 2 | 0.616 | 7.3 | inactive
C4orf33 (chromosome 4 open reading frame 33) | 3 | -0.665 | -1.71 | inactive
PLCL2 (phospholipase C like 2) | 1 | -0.256 | 1.16 | inactive
PLCL2 (phospholipase C like 2) | 2 | 2.24 | 18.7 | inactive
PLCL2 (phospholipase C like 2) | 3 | 1.78 | 15.5 | inactive
PLCG2 (phospholipase C gamma 2) | 1 | 2.38 | 19.7 | inactive
PLCG2 (phospholipase C gamma 2) | 2 | 4.36 | 33.6 | inactive
PLCG2 (phospholipase C gamma 2) | 3 | 0.0783 | 3.52 | inactive
SORD2P (sorbitol dehydrogenase 2, pseudogene) | 1 | -0.532 | -0.778 | inactive
SORD2P (sorbitol dehydrogenase 2, pseudogene) | 2 | 3.8 | 29.7 | inactive
SORD2P (sorbitol dehydrogenase 2, pseudogene) | 3 | 2.02 | 17.2 | inactive
DYM (dymeclin) | 1 | 0.339 | 5.36 | inactive
DYM (dymeclin) | 2 | 1.72 | 15.1 | inactive
DYM (dymeclin) | 3 | 0.841 | 8.88 | inactive
SELENOF (selenoprotein F) | 1 | -0.562 | -0.988 | inactive
SELENOF (selenoprotein F) | 2 | -0.238 | 1.29 | inactive
SELENOF (selenoprotein F) | 3 | 8.36 | 61.8 | active
